Some results were stated once for a whole list of compounds, not compound by compound.
Tested on: Human umbilical vein endothelial cells (HUVEC)
Assay: Matrigel tube formation assay
Assay type: cell-based
Settings: variability between batches of HUVEC
Protocol: The antibodies were tested for their ability to inhibit tube formation in a Matrigel assay. Human umbilical vein endothelial cells (HUVEC) were plated on Matrigel and cultured overnight in the presence of 100 nM mAbs. The blocking rabbit polyclonal Lrg1 antibody was also evaluated. […] Blocking with 4H2 never exceeded ˜50%.

B1: 15C4: mouse monoclonal antibody against human Lrg1, VH SEQ ID NO: 1, VL SEQ ID NO: 2 (antibody, V domains shown)
VH: QVQLQQSGDEVVRPGSSVKISCKASGYTFSGYWMNWVKQRPGQGLQWIGQIYPGDGDTNYNGKFKGKATLTADKSSSTAYMQLSTLTSEDSAIYFCARSITTVVLDYWGQGTTLTVSS
VL: DIVLTQSPVSLAVSLGQRATISCRASQSVSTSGYSFMHWYQQKPGQPPKFLIKYASNLESGVPARFSGSGSGTDFTLNIHPVEEEDTATYYCQHSWEMPLTFGAGTKLELK
modifications: 15C4 Variable Heavy Chain; 15C4 Variable light chain
inhibition of tube formation in some instances: > 80%

Reference: patent publication US10556007B2, “Antibody which binds Lrg1 and methods of use” (UCL Business PLC, priority 2015, dated 2020)
